Measurements reported in PubChem BioAssay AID1259327 (Drosophila RNAi Screening Center, 2017).

- Assay: 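Knock-downs altering cellular ATP with no metal added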
- Cells: Drosophila S2R+ cells
- Knock-down reagent: long dsRNA against Drosophila genes
- Timing: 5 days (water added on day 4, read one day later)
- Conditions: water added as vehicle, no metal, one day before read-out
- Measured: 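Luciferase ATP signal per well, normalised to plate mean, duplicate average converted to z-score across plates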
- Direction: ATP z-score: higher = more total ATP than typical wells; ATP luminescence: higher = more total ATP
- Hit rule: 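Called active when the ATP z-score exceeds 1.5 or falls below -1.5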
- Calls: active = hit: ATP up or down; inactive = no clear ATP change
Shown is an unselected part of about 3,100 reagents tested. Of all reagents, 378 (12%) were called active. 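Hits include both directions; z-score sign shows ATP rise or fall; raw luminescence values are not plate-normalised.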 A number with no mark means an inactive call. The record does not give: the amount of reagent.

| Gene | dsRNA | ATP z-score, duplicate mean | ATP luminescence, replicate 1 (RLU) | ATP luminescence, replicate 2 (RLU) |
| --- | --- | --- | --- | --- |
| Ten-a | DRSC19864 | 0.263 | 7.78e5 | 7.64e5 |
| Ten-a | DRSC20290 | -0.665 | 5.95e5 | 1.03e6 |
| Ephrin | DRSC17165 | -1.04 | 5.56e5 | 6.09e5 |
| Ephrin | DRSC39417 | 0.22 | 5.06e5 | 4.31e5 |
| Ephrin | DRSC39418 | 0.503 | 4.85e5 | 4.87e5 |
| CG1572 | DRSC19686 | 0.518 | 7.40e5 | 7.77e5 |
| sll | DRSC16271 | 1.62 (active) | 9.25e5 | 8.23e5 |
| sll | DRSC29864 | -0.213 | 5.30e5 | 5.93e5 |
| CR7448 | DRSC11828 | -1.74 (active) | 4.98e5 | 5.93e5 |
| CR7448 | DRSC22485 | -0.6 | 6.67e5 | 8.85e5 |
| Lap1 | DRSC07454 | 0.34 | 6.85e5 | 6.15e5 |
| Lap1 | DRSC39730 | 0.541 | 4.87e5 | 5.18e5 |
| bwa | DRSC01749 | -0.762 | 6.35e5 | 6.86e5 |
| bwa | DRSC02310 | 0.0992 | 7.35e5 | 7.38e5 |
| l(2)k05819 | DRSC00826 | 1.95 (active) | 6.38e5 | 5.91e5 |
| l(2)k05819 | DRSC39612 | -0.925 | 3.81e5 | 4.25e5 |
| put | DRSC17039 | 0.814 | 8.14e5 | 7.66e5 |
| put | DRSC36611 | 0.963 | 6.44e5 | 6.79e5 |
| put | DRSC36612 | 0.011 | 5.00e5 | 6.62e5 |
| inc | DRSC17954 | 1.07 | 6.12e5 | 7.40e5 |
| inc | DRSC28898 | -0.927 | 7.36e5 | 6.88e5 |
| Nup214 | DRSC04421 | 0.187 | 6.72e5 | 8.32e5 |
| Nup214 | DRSC39709 | 1.07 | 5.63e5 | 5.12e5 |
| Kap-alpha3 | DRSC16976 | 2.11 (active) | 4.35e5 | 8.86e5 |
| CG6938 | DRSC10752 | 0.0223 | 9.19e5 | 8.79e5 |
| CG6938 | DRSC28621 | -0.695 | 8.04e5 | 6.80e5 |
| Gr97a | DRSC13802 | 2.15 (active) | 1.14e6 | 1.21e6 |
| stol | DRSC01956 | -0.2 | 6.96e5 | 7.14e5 |
| stol | DRSC39841 | -1.3 | 3.72e5 | 4.04e5 |
| CG31689 | DRSC00734 | -2.44 (active) | 4.55e5 | 4.52e5 |
| CG31689 | DRSC24715 | -0.154 | 8.48e5 | 7.64e5 |
| Mdr65 | DRSC11220 | 1 | 1.06e6 | 9.98e5 |
| CG8086 | DRSC03078 | -0.444 | 4.22e5 | 4.76e5 |
| CG8086 | DRSC03079 | 0.655 | 8.53e5 | 7.40e5 |
| CG8086 | DRSC27677 | -0.102 | 1.12e6 | 9.03e5 |
| Or47a | DRSC07491 | -0.454 | 5.58e5 | 5.99e5 |
| Apl | DRSC10350 | -1.03 | 8.10e5 | 7.13e5 |
| sog | DRSC20379 | 0.633 | 8.70e5 | 9.09e5 |
| rho-5 | DRSC26239 | -1.33 | 6.69e5 | 7.02e5 |
| rho-5 | DRSC39726 | -0.148 | 4.31e5 | 4.80e5 |
| CG30379 | DRSC05070 | 1.18 | 8.60e5 | 8.81e5 |
| CG30379 | DRSC39783 | -0.781 | 4.08e5 | 4.41e5 |
| Alg10 | DRSC10892 | 0.614 | 9.76e5 | 9.76e5 |
| Alg10 | DRSC39451 | -0.692 | 4.41e5 | 3.75e5 |
| xit | DRSC18364 | 0.221 | 7.44e5 | 7.14e5 |
| xit | DRSC39724 | 0.106 | 4.82e5 | 4.62e5 |
| CG7990 | DRSC19296 | 0.386 | 6.44e5 | 9.34e5 |
| CG7990 | DRSC23195 | 1.29 | 7.07e5 | 6.70e5 |
| CG7990 | DRSC26580 | -1.7 (active) | 8.75e5 | 1.04e6 |
| SdhC | DRSC16088 | -0.82 | 2.82e5 | 6.22e5 |
| SdhC | DRSC39835 | -0.977 | 3.76e5 | 4.48e5 |
| Ktch | DRSC15094 | 0.965 | 6.54e5 | 7.69e5 |
| Ktch | DRSC25973 | -0.724 | 7.77e5 | 7.43e5 |
| MFS12 | DRSC07268 | -0.292 | 6.77e5 | 7.24e5 |
| Ptp99A | DRSC14320 | -0.29 | 6.51e5 | 7.06e5 |
| Ptp99A | DRSC16803 | -0.272 | 6.85e5 | 7.42e5 |
| Ptp99A | DRSC22477 | -0.466 | 7.16e5 | 8.69e5 |
| Ptp99A | DRSC23033 | -0.533 | 4.99e5 | 5.71e5 |
| Ptp99A | DRSC37009 | -1.36 | 4.32e5 | 4.98e5 |
| MFS14 | DRSC29787 | -1.68 (active) | 4.29e5 | 4.46e5 |
| MFS14 | DRSC39753 | 0.825 | 4.86e5 | 5.58e5 |
| ACXB | DRSC26343 | -0.393 | 9.09e5 | 7.15e5 |
| ACXB | DRSC39703 | 1.2 | 5.23e5 | 5.72e5 |
| gcl | DRSC07623 | 1.58 (active) | 7.85e5 | 1.02e6 |
| gcl | DRSC27995 | -1.08 | 9.46e5 | 1.02e6 |
| Dh44-R1 | DRSC07172 | -0.164 | 6.70e5 | 7.59e5 |
| Dh44-R1 | DRSC28984 | -0.504 | 6.63e5 | 8.51e5 |
| CG5823 | DRSC15881 | -0.157 | 7.18e5 | 6.62e5 |
| CG5823 | DRSC39656 | 1.25 | 4.64e5 | 6.39e5 |
| ppk24 | DRSC15093 | -1.13 | 5.13e5 | 7.48e5 |
| ppk24 | DRSC39805 | -0.197 | 4.25e5 | 5.08e5 |
| Loxl2 | DRSC04469 | 0.0814 | 7.65e5 | 7.13e5 |
| fbl | DRSC11886 | -0.741 | 8.34e5 | 7.65e5 |
| fbl | DRSC27922 | 1.54 (active) | 9.35e5 | 1.07e6 |
| CG17930 | DRSC15292 | 0.163 | 7.36e5 | 7.10e5 |
| CG17930 | DRSC28230 | -0.456 | 7.50e5 | 7.84e5 |
| sut1 | DRSC07700 | 0.507 | 7.97e5 | 7.73e5 |
| cry | DRSC16928 | -0.456 | 2.95e5 | 6.71e5 |
| cry | DRSC39669 | -1.49 | 3.78e5 | 3.50e5 |
| CG32320 | DRSC21514 | -2 (active) | 4.12e5 | 4.09e5 |
| CG32320 | DRSC28106 | -0.384 | 9.54e5 | 8.70e5 |
| Dop2R | DRSC20683 | 1.6 (active) | 8.43e5 | 9.95e5 |
| Dop2R | DRSC29286 | -0.0392 | 8.02e5 | 8.32e5 |
| HisCl1 | DRSC14945 | 0.65 | 8.07e5 | 7.39e5 |
| Gr36b | DRSC21637 | -0.731 | 4.52e5 | 5.84e5 |
| Gr36b | DRSC29818 | -0.229 | 6.22e5 | 4.98e5 |
| mnd | DRSC11370 | -0.851 | 7.88e5 | 7.81e5 |
| mnd | DRSC39608 | -0.948 | 4.00e5 | 4.02e5 |

5 entries from above, reformatted:
Gene	dsRNA	ATP z-score, duplicate mean	ATP luminescence, replicate 1 (RLU)	ATP luminescence, replicate 2 (RLU)
gcl	DRSC27995	-1.08	9.46e5	1.02e6
Dh44-R1	DRSC07172	-0.164	6.70e5	7.59e5
Dh44-R1	DRSC28984	-0.504	6.63e5	8.51e5
CG5823	DRSC15881	-0.157	7.18e5	6.62e5
CG5823	DRSC39656	1.25	4.64e5	6.39e5
